In US20260137784A1:
No constants are given. Whether binding was seen depends on the method and setting. Some results given as binding are weak or reduced against the parent protein; the word gives no strength. Where a sequence is shown, tags or fusion partners need not be part of it.

Protein sequences, listed by entry. Tags and fused reporters are not part of them. Residues count along the entry.
UniProt P25092, residues 24-1073: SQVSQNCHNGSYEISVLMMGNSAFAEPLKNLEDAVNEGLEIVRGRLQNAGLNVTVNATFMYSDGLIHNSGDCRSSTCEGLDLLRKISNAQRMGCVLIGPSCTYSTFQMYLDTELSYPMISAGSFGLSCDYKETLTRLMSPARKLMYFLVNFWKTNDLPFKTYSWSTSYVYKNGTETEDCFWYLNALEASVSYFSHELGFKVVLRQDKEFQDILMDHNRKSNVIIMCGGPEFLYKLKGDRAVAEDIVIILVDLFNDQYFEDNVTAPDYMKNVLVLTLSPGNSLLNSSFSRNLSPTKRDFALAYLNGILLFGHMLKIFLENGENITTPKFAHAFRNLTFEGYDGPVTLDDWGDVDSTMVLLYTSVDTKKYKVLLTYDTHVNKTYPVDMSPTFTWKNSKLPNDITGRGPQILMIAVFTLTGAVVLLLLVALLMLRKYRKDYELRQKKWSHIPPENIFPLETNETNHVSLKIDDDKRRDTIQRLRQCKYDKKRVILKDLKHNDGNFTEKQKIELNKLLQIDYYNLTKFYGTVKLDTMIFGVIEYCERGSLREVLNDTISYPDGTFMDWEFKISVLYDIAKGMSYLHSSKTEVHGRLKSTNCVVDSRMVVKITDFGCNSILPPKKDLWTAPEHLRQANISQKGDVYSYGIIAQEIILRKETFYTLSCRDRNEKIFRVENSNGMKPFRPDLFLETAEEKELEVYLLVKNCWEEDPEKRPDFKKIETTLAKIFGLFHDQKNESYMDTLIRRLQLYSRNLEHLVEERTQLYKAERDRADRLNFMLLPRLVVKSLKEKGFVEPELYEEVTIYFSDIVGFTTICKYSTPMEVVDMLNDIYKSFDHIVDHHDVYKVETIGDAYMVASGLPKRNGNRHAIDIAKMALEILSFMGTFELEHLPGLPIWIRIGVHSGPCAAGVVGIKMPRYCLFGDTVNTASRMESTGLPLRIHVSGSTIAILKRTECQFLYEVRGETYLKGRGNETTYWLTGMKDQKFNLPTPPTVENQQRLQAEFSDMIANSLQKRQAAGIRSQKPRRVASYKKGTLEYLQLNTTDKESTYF

Tests used:
[1] = molecular target: GUCY2C (Guanylate Cyclase 2C) (human) (UniProt P25092); assay: membrane proteome array of over 6,000 human membrane proteins
[2] = molecular target: GUCY2C (Guanylate Cyclase 2C) (human) (UniProt P25092); assay: fluorescence of HEK cells transfected with GUCY2C plasmid or empty vector after incubation with the fusion protein at various concentrations

B1: G22H8-GFP (G22H8 nanobody expressed as a GFP fusion protein) (VHH, not shown: large carriers)
VHH: QVQLVESGGGLVQPGGSLRLSCAASRNIASLYRVDWYRQAPGKGLELVAGRTSGGTTTYLDAVEGRFTISRDNVKDTLYLQMNSLRAEDTAVYYCHAHDHWRDSWGQGTLVTVSS
binding [1]: binds
binding [2]: binds
